Literature values as cited in US7691572B2, “Method and kit for detecting resistance to antiviral drugs” (priority 1998, dated 2010).
For at least one compound, name, drawing or mass did not settle the structure.

System: HIV-1
Conditions: 3TC in combination with AZT and protease inhibitors; for as long as one year in 90% of patients; cited from earlier work

In the case of Nc1ccn([C@@H]2CS[C@H](CO)O2)c(=O)n1 [3TC, lamivudine], the “levels of HIV-1 RNA” value is listed as “less than 500 copies per milliliter”.
